From publication PMC11520136, “Design, synthesis, and biological investigations of new pyrazole derivatives as VEGFR2/CDK-2 inhibitors targeting liver cancer” (BMC Chemistry, 2024)

Tested on: THLE2 cells
Experiment: MTT cytotoxicity assay against THLE2
Assay type: cell-based
Details: Homo sapiens, THLE-2, 48 h, normal liver cells, mean ± SD, n = 3
Experimental: The RPMI-1640 complete medium L-Glutamine (Lonza Verviers SPRL, Belgium, cat#12-604F) was used to cultivate the liver cancer (HepG2), normal liver (THLE2) cell lines purchased from the National Cancer Institute, Egypt. The cell lines were supplemented with 10% fetal bovine serum (Sigma-Aldrich, MO, USA) and 1% penicillin–streptomycin. Compounds were added to the cells on the second day at doses of “0, 0.01, 0.1, 1, 10, and 100 μM”. Cell viability was assessed after 48 h using the MTT solution (Promega, USA).

## CC[C@H](CO)Nc1nc(NCc2ccccc2)c2ncn(C(C)C)c2n1 [Roscovitine, reference compound]
  IC50: 23.6 ± 0.98 µM
